In publication PMC8466468:
Results are given in words; binding and its absence hold for the method and conditions named. Binding seen in cells or lysates may run through a third protein. Some entries that bind do so weakly or less than the wild type.

Sequences of proteins named here, by UniProt entry; tags and fusion partners are left off. A change or cut given only in a name is not applied to a line headed by its entry.
UniProt Q8N6T7: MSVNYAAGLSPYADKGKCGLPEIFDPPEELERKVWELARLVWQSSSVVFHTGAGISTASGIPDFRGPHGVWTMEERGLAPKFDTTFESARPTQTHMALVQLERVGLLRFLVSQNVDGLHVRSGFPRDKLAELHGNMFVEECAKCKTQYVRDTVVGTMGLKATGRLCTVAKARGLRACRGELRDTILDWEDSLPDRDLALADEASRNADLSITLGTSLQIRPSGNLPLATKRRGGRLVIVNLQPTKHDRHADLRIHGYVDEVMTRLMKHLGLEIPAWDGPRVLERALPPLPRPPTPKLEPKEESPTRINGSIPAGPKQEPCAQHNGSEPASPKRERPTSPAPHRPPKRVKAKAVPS
UniProt P53396: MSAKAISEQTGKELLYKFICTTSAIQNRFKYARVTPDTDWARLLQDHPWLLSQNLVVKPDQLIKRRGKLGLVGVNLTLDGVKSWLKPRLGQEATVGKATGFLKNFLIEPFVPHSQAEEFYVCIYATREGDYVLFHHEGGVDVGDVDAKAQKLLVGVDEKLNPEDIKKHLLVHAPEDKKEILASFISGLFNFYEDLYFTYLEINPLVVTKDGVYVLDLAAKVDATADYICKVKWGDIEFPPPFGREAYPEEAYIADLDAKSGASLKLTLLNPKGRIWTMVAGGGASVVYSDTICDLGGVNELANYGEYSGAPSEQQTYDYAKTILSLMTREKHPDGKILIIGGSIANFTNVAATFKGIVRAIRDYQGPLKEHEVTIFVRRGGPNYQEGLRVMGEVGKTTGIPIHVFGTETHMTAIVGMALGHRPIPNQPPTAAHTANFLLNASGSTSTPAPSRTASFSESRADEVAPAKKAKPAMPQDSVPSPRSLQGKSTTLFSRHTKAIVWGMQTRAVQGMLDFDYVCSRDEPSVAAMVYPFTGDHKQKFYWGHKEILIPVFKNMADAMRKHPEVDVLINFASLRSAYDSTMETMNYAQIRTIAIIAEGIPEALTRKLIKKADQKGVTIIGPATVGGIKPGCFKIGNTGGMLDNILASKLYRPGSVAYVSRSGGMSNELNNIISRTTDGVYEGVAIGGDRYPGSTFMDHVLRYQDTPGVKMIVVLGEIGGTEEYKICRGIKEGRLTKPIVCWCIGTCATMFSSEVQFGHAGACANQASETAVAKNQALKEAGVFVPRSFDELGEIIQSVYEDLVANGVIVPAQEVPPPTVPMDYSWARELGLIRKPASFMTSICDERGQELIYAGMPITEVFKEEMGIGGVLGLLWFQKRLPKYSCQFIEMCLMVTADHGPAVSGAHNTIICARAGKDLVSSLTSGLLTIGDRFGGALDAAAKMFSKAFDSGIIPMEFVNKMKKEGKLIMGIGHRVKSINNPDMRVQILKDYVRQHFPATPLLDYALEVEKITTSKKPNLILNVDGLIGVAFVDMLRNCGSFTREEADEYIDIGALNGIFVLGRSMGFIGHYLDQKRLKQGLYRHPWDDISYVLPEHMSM

Legend:
Test in all cases: co-IP; Flag-immunoprecipitation with anti-FLAG M2 affinity gel from 2 mg total protein of U2OS lysate; buffer A (50 mM Tris-HCl pH 7.4, 250 mM NaCl, 0.5% Triton X-100, 10% glycerol); Western blot
[1] = target: Flag-tagged SIRT6 S56Y (human) (UniProt Q8N6T7)
[2] = target: Flag-tagged SIRT6 G60A (human) (UniProt Q8N6T7)
[3] = target: Flag-tagged SIRT6 H133Y (human) (UniProt Q8N6T7)
[4] = target: Flag-tagged SIRT6 R65A (human) (UniProt Q8N6T7)
[5] = target: Flag-tagged wild-type SIRT6 (human) (UniProt Q8N6T7)

Measured: binding

ATP citrate lyase (ACLY) (from UniProt P53396 1-1101) (enzyme)
binds: [1] | [2] | [3] | [4] | [5]
